These results are taken from publication PMC9909993.

Chains of the proteins cited; added tags and fusions are not shown.
UniProt P49736: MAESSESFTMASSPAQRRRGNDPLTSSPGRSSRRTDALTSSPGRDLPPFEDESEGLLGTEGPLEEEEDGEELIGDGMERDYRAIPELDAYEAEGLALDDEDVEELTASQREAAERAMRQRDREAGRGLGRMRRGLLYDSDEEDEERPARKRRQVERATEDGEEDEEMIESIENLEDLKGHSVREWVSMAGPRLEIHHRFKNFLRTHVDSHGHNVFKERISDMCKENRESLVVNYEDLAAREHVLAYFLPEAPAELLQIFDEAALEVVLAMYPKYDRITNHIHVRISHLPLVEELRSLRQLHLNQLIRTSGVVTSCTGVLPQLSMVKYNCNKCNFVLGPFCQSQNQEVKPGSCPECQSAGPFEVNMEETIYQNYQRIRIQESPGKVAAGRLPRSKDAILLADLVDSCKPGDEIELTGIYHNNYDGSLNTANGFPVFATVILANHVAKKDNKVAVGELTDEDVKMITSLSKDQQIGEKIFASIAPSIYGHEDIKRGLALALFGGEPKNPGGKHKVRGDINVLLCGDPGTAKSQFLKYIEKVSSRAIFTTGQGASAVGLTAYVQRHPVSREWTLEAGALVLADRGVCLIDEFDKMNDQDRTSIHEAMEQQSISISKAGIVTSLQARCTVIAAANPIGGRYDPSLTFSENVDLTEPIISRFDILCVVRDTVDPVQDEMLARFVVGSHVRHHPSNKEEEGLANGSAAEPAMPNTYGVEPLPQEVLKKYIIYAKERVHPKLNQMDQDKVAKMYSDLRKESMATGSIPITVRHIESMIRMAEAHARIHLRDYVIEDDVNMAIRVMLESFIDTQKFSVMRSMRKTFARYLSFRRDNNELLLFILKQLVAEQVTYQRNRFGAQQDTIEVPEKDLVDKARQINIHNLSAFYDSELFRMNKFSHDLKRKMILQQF

For this assay, the target named is minichromosome maintenance 2 (MCM2) (human (endogenous in H9 hESCs)) (UniProt P49736). Put plainly: co-IP; lysate of H9 hESCs treated with siControl or siESRG; primary antibody or mouse IgG for 4 h, protein A/G PLUS beads overnight, washed at least three times with lysis buffer; precipitating antibody not told.

These are yes or no findings as the source states them, for the method shown. Binding seen in cells or lysates may run through a third protein. Some entries that bind do so weakly or less than the wild type.

B1: TRAIP (protein, UniProt Q9BWF2 1-469)
chain: MPIRALCTICSDFFDHSRDVAAIHCGHTFHLQCLIQWFETAPSRTCPQCRIQVGKRTIINKLFFDLAQEEENVLDAEFLKNELDNVRAQLSQKDKEKRDSQVIIDTLRDTLEERNATVVSLQQALGKAEMLCSTLKKQMKYLEQQQDETKQAQEEARRLRSKMKTMEQIELLLQSQRPEVEEMIRDMGVGQSAVEQLAVYCVSLKKEYENLKEARKASGEVADKLRKDLFSSRSKLQTVYSELDQAKLELKSAQKDLQSADKEIMSLKKKLTMLQETLNLPPVASETVDRLVLESPAPVEVNLKLRRPSFRDDIDLNATFDVDTPPARPSSSQHGYYEKLCLEKSHSPIQDVPKKICKGPRKESQLSLGGQSCAGEPDEELVGAFPIFVRNAILGQKQPKRPRSESSCSKDVVRTGFDGLGGRTKFIQPTDTVMIRPLPVKPKTKVKQRVRVKTVPSLFQAKLDTFLWS
Consider B1, for which the binding result is given as “binds”.
